A: 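Polyketide synthase Pks13, Mycobacterium tuberculosis (UniProt I6X8D2). Enzyme assay of the thioesterase domain of polyketide synthase 13; the read-out is not stated. Concentration: 30 µM. Higher reads as stronger inhibition (inferred from which compounds were picked for retests). About 67,000 compounds were tested under these conditions; 0.46% (about 300) showed 50% or more at least once.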
B: 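Assay of Toxoplasma gondii numbers, read through their beta-galactosidase reporter with a colour substrate. Compounds at 10 µM. Higher reads as fewer parasites (inferred from which compounds were picked for retests). About 67,000 compounds were tested under these conditions; 0.38% (about 260) showed 50% or more at least once.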
C: 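Enzyme assay of CoaBC with a phosphate dye (Biomol Green) read at 650 nm. Target: Coenzyme A biosynthesis protein CoaBC, Mycobacterium tuberculosis (UniProt P9WNZ1). Compounds at 30 µM. Direction is inferred from only a few compounds that gave an IC50; most scored high, so higher reads as stronger inhibition. Most strong results did not repeat in a second test. Of about 67,000 compounds tested this way, about 40 (0.06%) reached 50% or more in at least one test.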
D: 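Protease assay of ClpP1P2, read by the AMC dye that it sets free. Target: ClpP1P2, Mycobacterium tuberculosis (UniProt P9WPC5 and UniProt P9WPC3). Compounds at 50 µM. Direction is inferred from only a few compounds that gave an IC50; most scored high, so higher reads as stronger inhibition. Most other retested compounds had strongly negative values. Size under these conditions: about 69,000 compounds, about 10 of them at 50% or above in at least one test.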
E: 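Cell assay of Leishmania donovani living inside macrophages; the read-out is not stated. Concentration: 30 µM. The record gives no direction; compounds that gave an IC50 in retests scored well above the rest, so higher reads as stronger inhibition. Size under these conditions: about 69,000 compounds, about 1,000 of them at 50% or above in at least one test.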
F: 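Tryptophan-tRNA ligase, Mycobacterium tuberculosis (UniProt P9WFT3). Enzyme assay of tryptophanyl-tRNA synthetase; the read-out is not stated. Concentration: 10 µM. Direction is not recorded; retested compounds ran higher, which suggests that high means inhibition. Of about 65,000 compounds tested this way, about 64 (0.098%) reached 50% or more in at least one test.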

Amino acid sequences for entries named in this document (tags omitted).
UniProt I6X8D2, whole entry: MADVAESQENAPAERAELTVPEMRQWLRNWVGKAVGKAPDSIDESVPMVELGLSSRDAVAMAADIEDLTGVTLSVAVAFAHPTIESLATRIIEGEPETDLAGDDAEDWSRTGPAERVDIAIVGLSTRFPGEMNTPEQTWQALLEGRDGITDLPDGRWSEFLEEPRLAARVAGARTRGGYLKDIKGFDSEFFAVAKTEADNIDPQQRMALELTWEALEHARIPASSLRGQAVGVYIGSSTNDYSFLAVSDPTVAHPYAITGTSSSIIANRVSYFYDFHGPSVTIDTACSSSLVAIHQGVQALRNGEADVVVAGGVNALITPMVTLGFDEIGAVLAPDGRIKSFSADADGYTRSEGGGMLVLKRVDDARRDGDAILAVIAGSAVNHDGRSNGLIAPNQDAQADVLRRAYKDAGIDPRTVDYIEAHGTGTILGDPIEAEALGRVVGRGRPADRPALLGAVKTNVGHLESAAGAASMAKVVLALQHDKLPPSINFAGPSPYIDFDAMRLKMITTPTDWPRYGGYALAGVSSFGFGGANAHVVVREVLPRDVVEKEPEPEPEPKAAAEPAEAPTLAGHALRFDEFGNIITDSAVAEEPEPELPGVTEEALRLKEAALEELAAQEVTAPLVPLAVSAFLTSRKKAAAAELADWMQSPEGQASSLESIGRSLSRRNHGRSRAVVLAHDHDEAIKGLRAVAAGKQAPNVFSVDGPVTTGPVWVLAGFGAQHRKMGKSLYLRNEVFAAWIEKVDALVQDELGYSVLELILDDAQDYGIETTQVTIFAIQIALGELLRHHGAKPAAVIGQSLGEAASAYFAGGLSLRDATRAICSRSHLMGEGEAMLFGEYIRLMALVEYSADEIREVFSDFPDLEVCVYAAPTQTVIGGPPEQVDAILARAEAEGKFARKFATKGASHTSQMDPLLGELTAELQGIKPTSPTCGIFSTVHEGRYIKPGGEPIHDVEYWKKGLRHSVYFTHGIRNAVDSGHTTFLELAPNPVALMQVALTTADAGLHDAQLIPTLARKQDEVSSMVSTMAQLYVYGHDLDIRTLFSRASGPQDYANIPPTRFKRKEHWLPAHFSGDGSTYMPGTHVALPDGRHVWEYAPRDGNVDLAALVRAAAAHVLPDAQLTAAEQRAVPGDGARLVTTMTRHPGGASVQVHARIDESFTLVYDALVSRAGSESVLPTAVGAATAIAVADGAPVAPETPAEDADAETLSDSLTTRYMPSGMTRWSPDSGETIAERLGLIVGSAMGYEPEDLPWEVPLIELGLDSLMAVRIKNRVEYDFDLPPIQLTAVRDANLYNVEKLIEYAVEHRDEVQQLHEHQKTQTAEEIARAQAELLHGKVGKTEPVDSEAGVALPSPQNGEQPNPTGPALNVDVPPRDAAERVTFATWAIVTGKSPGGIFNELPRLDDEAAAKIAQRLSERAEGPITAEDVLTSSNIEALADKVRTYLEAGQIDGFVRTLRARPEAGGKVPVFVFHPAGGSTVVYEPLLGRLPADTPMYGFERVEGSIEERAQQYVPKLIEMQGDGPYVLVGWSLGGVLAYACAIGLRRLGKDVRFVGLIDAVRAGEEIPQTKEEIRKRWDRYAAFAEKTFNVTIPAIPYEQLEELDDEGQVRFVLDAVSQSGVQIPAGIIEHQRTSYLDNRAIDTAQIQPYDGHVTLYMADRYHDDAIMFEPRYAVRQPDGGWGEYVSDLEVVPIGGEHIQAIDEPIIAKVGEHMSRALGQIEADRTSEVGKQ
UniProt P9WNZ1, whole entry: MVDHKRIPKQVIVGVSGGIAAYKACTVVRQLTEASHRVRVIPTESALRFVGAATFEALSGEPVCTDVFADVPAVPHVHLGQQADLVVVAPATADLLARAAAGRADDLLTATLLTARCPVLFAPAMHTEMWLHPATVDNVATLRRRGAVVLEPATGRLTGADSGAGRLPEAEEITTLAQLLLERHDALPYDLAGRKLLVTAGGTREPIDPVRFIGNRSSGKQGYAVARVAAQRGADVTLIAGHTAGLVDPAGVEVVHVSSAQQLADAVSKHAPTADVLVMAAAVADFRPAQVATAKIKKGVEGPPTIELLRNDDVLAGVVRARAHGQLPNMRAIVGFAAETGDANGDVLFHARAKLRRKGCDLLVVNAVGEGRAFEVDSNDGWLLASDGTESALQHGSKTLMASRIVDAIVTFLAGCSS
UniProt P9WPC5, whole entry: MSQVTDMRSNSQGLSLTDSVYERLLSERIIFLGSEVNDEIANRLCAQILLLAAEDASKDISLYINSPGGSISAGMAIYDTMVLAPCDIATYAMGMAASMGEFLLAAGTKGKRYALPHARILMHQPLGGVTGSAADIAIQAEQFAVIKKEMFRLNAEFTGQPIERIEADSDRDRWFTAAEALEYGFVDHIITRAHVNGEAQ
UniProt P9WPC3, whole entry partner: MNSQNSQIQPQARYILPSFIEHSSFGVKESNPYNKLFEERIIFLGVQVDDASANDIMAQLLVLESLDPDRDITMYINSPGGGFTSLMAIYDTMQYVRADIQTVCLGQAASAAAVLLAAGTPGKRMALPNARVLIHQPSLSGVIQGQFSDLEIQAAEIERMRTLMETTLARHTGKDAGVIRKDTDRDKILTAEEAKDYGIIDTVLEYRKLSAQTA
UniProt P9WFT3, whole entry: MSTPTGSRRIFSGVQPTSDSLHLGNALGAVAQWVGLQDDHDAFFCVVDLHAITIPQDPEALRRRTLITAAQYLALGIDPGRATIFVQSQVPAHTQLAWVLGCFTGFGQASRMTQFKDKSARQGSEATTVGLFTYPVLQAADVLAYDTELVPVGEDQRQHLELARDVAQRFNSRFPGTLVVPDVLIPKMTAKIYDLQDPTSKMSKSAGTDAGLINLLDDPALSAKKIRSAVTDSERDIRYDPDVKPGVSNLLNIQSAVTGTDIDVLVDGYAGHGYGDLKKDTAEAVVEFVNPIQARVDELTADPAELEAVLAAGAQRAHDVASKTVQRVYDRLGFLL

Each number is a percent effect as filed.
The record does not define 0% and 100%; most values in the screen are far below 50% and negative numbers occur (in some assays of this library far below -100).
Compounds were drawn at random from those tested, without regard to their results.
Two or more numbers in one place are separate tests of the same structure; such repeats can differ widely.
A dash means the value is not listed here; it may have been measured.

SMILES,A,B,C,D,E,F
O=S(=O)(C1CC1)N1CCC2(COCc3cnc(N4CCOCC4)nc32)C1 (stereo not shown),-45.69%,1.913%,-3.096%,17.51%,3.428%,0.804%
O=C([C@H]1C[C@H]2OCC[C@H]2N(Cc2ccoc2)C1)N1CCCO1,-10.76%,-,2.284%,-10.48%,-,-4.362%
CC(O)CN1CCc2onc(C(c3ccccc3)c3ccccc3)c2C1 (stereo not shown),-37.54%,0.1873%,6.522%,-7.513%,35.85%,-2.023%
CN(Cc1cc2n(n1)CCNC2)Cc1noc(C2CCC2)n1,-1.775%,1.953%,-1.653%,4.892%,3.82%,-0.8704%
CCCS(=O)(=O)C(C)C(=O)Nc1ccc2oc(C3CC3)nc2c1 (stereo not shown),-41.23%,4.746%,-,4.07%,26.77%,3.532%
Cc1ncc2c(n1)CN(CC(=O)Nc1nnc(C)s1)CC2,-4.815%,-8.009%,2.937%,-28.23%,-3.638%,3.595%
Cc1ccc(CN[C@@H]2COC[C@H]2c2ccc(F)cc2)cc1C,21.67%,-,13.87%,-19.25%,-,-0.5789%
[H][C@@]12CCC(=O)N(CCCOC)[C@]1([H])CCN(c1cnc3ccccc3n1)C2,-,0.7812%,-,-,-33.42%,-
CCC(C)n1cnc(S(=O)(=O)N(C)c2cccnc2N(C)C)c1 (stereo not shown),-4.376%,-1.006%,0%,-11.4%,-12.98%,-2.963%
COCC(=O)N1CCCC(C)(c2nncn2C)C1 (stereo not shown),3.021%,12.05%,-7.152%,4.229%,15.48%,-6.201%
COc1ccccc1CNC(=O)CN(C)C(C)c1ccon1 (stereo not shown),-7.671%,-32.86%,0.8861%,-7.909%,42.61%,-2.855%
CC(C)C[C@H](N)C(=O)N1CC2(CCNCC2)c2cc(Cl)ccc21,-25.94%,-,7.294%,-0.3205%,-,-4.643%
CCn1c(=O)n(Cc2nc(C3CC3)no2)c2ccccc21,-34.57%,-2.27%,3.226%,-8.475%,-20.78%,4.505%
COC(=O)c1cccn1C1CCN(C(=O)c2cc(F)ccc2F)CC1,-12.9%,6.141%,-3.614%,9.65%,23.93%,-0.07993%
COCCOc1ccc(NC(=O)N2CCCC2c2cccs2)cn1 (stereo not shown),-4.713%,2.779%,1.08%,-6.84%,-23.24%,3.336%
CCCC(=O)N1CCCC(C(=O)c2cnn(-c3ccc(F)cc3)c2N)C1 (stereo not shown),-0.3324%,11.75%,-7.096%,-10.26%,35.13%,-9.537%
CCC(C)(C)NC(=O)c1nnn(-c2cccc3c2CCN(C)C3)c1C,-10.94%,6.512%,2.479%,6.865%,-10.47%,3.259%
CCCOC1CCCN(C(=O)c2ccnnc2)C1 (stereo not shown),-20.35%,-5.68%,0.8526%,1.629%,19%,-1.288%
Cc1cc(NC(C)C(=O)N2CCN(c3ncccn3)CC2)ccc1F (stereo not shown),12.61%,-3.413%,7.692%,-10.71%,16.89%,14.9%
COCCn1c(-c2cccc(OC)c2)cnc1NC(=O)NC(C)C,-6.575%,4.035%,4.557%,-5.018%,15.23% and 16.63%,3.476%
CS(=O)(=O)NCc1cn2c(n1)CN(Cc1ccoc1)CC2.O=C(O)C(F)(F)F,-,0.5977%,-,-,13.66%,-
CC(C)c1nn(C)c(N(C)C)c1CNCc1cccnc1N(C)C,-258.1%,2.4%,10.74%,-9.118%,30.31%,-5.2%
Cc1nc(CSCCC(=O)NCc2ccc(-n3cncn3)nc2)cs1,-11.57%,-40.46%,16.45%,-1.128%,0.1518%,17.17%
CC(C)(CO)CCCNC(=O)NC1(c2ccccc2F)CC1,4.181%,-3.249%,3.802%,-6.919%,-9.069%,-0.000007%
CCC1COC2(CCN(C(=O)c3ccco3)CC2)C1 (stereo not shown),3.242%,-1.213%,5%,-5.482%,3.136%,4.848%
CCc1cccc2cc(CNCCCN3CCOCC3)c(=O)[nH]c12,16.47%,0.3517%,-0.2421%,8.461%,18.77% and 19%,-
CCn1cc(NC(=O)CN2CCC(Oc3ccc(F)cc3)CC2)c(C)n1,3.266%,-,0%,-7.979%,-,-5.028%
COc1ccc(OCCc2sc(C3(O)CCCNCC3)nc2C)cc1 (stereo not shown),-24.57%,-,-1.667%,-3.629%,-,-0.4181%
Cc1ccc(S(=O)(=O)N2CCN(C)c3ccncc32)cc1F,-54.86%,-3.016%,7.071%,1.393%,-1.567%,2.583%
COc1cc(OC)cc(-c2noc(CC(N)c3ccccc3)n2)c1 (stereo not shown),-4.762%,9.675%,-19.53%,4.617%,48.96%,0.7282%
O=C(Nc1ccccc1)[C@H]1C[C@@H]2CN(S(=O)(=O)C3CC3)C[C@H]1O2,6.678%,-,9.774%,15.54%,-,4.841%
COC(=O)c1ccc(CN(C)C(=O)c2cnsn2)cc1,-7.84%,20.13%,2.926%,-12.78%,-15.72%,-1.188%
CN1CCN(CC2CC2)C(=O)C12CCN(C(=O)c1cnccn1)CC2,-32.99%,2.709%,3.171%,7.952%,2.528% and -2.327%,-2.044%
CS(=O)(=O)N[C@@H]1CCN(Cc2nccs2)[C@H]1Cc1ccncc1,-28.22%,-,-,3.364%,-,3.779%
CCS(=O)(=O)N[C@@H]1CN(Cc2cc(C)on2)C[C@@H]2CCCO[C@@H]21,-12.1%,-,7.048%,-2.834%,-,2.85%
O=C(O)C(F)(F)F.[H][C@@]12CCN(Cc3cccs3)C[C@]1(C(=O)N1CCCO1)CCO2,-,2.233%,-,-,8.127%,-
[H][C@]12CCN(C(=O)COC)CC[C@@]1([H])S(=O)(=O)N(Cc1cccnc1)C2,-,-31.71%,-,-,12.71%,-
CN(c1ncc(S(N)(=O)=O)s1)C1CCc2ccccc2C1 (stereo not shown),-9.79%,-18.53%,4.545%,-9.714%,53.12%,0.7389%
Cc1cc(C)n(C(=O)c2cn(C)nc2S(=O)(=O)N2CCSCC2)n1,-14.5%,-1.704%,-3.259%,-1.927%,15.21%,-1.288%
O=C(c1cc[nH]n1)N1CCCC(c2cc(C(F)(F)F)[nH]n2)C1 (stereo not shown),-4.079%,-14.56%,0.6519%,-0.8346%,-11.08%,-3.241%
CN(C)CC1CN(CCOc2cccc(C#N)c2)CCO1 (stereo not shown),-2.301%,-0.3139%,3.172%,-8.086%,15.54%,3.216%
Cc1nc(C)c(C(C)NC(=O)NCCNc2cccc(F)c2C#N)s1 (stereo not shown),-11.19%,-3.702%,4.481%,-4.964%,17.72%,-4.856%
CN1CCN(c2ncccc2N)CC1,-9.797%,2.632%,-0.2301%,2.602%,10.83%,-1.858%
CCNS(=O)(=O)C1CCN(C(=O)c2ccc(F)cc2)C1 (stereo not shown),-30.72%,1.387%,-1.085%,5.408%,8.547%,0.7498%
O=C(NCCNc1cnccn1)N1CC=C(c2ccc(O)cc2)CC1,-13.44%,-12.97%,7.143%,-1.245%,15.12%,-1.215%
Cc1cc(C(F)(F)F)nc(N(C)Cc2c(C)noc2C)n1,-,3.805%,-5.484%,-2.378%,-31.43%,4.113%
CCOC(=O)[C@@H]1[C@@H](c2ccccc2)CN2CCN(C(=O)C3CC3)C[C@H]12,-34.93%,-,-1.211%,-7.876%,-,-
COc1ccccc1CC1CCCN(CCN2CCOC2=O)C1 (stereo not shown),-3.107%,-2.727%,-11.59%,5.864%,-15.95%,3.631%
CN1C(=O)CC(c2cnn(C)c2)C12CCN(C(=O)c1ccncc1)CC2.O=C(O)C(F)(F)F (stereo not shown),-,-11.35%,-,-,16.56%,-
CCOCc1nc2c(c(N3CCN4CCCC4C3)n1)CCNCC2 (stereo not shown),-18.28%,-7.489%,3.14%,2.261%,8.811%,-3.636%
CC(=O)NCC(=O)N1CCc2nc(C)nc(C)c2CC1,-24.36%,-0.5851%,-,-3.762%,8.56%,-2.81%
Cc1ccsc1CN(C)C(=O)c1ccc(N2CCOCC2)c(F)c1,-28.38%,2.308%,-6.198%,-0.5008%,9.152%,-0.8704%
Cc1cccnc1C(NC(=O)CNC(=O)c1ccoc1C)C(C)C (stereo not shown),0.02712%,10.37%,12.36%,-4.301%,-2.952%,2.621%

3 of the entries, repeated:

{"smiles": "CCOCc1nc2c(c(N3CCN4CCCC4C3)n1)CCNCC2", "stereo": "stereo not shown", "A": -18.28, "B": -7.489, "C": 3.14, "D": 2.261, "E": 8.811, "F": -3.636}
{"smiles": "O=C(NCCNc1cnccn1)N1CC=C(c2ccc(O)cc2)CC1", "A": -13.44, "B": -12.97, "C": 7.143, "D": -1.245, "E": 15.12, "F": -1.215}
{"smiles": "CN1CCN(CC2CC2)C(=O)C12CCN(C(=O)c1cnccn1)CC2", "A": -32.99, "B": 2.709, "C": 3.171, "D": 7.952, "E": "2.528 and -2.327", "F": -2.044}

Data taken from ChEMBL document CHEMBL3988442, “University of Dundee, Small-Polar-MMV Screening Library” (2021).